{"source": "patent US7713942B2", "about": "“Cage-like microparticle complexes comprising sterols and saponins for delivery of polynucleotides” (Nordic Vaccine Technology A/S, priority 2001, dated 2010)", "experiment": "Incorporation of Dil into ISCOMs", "conditions": "150 μg/ml, absorption at 552 nm vs standard in methanol", "data": [{"smiles": "CCCCCCCCCCCCCCCCCCN1C(=CC=CC2=[N+](CCCCCCCCCCCCCCCCCC)c3ccccc3C2(C)C)C(C)(C)c2ccccc21.[O-][Cl+3]([O-])([O-])[O-]", "note": "[Dil, 1,1′-dioctadecyl-3,3,3′,3′-tetramethylindocarbocyanine perchlorate]", "values": [{"measurement": "Percent incorporation", "setting": "Dil dissolved in DMF", "result": "93/104"}, {"measurement": "Percent incorporation", "setting": "Dil dissolved in EtOH", "result": "97/85"}]}]}
